Results are given in words; binding and its absence hold for the method and conditions named. Some binding calls cover weakened binding; strength is not graded here.
Experiments:
[1] = target: CD5 on human T cells (human) (UniProt P06127); test: flow cytometry on human T cells
[2] = target: recombinant human CD5 (human) (UniProt P06127); test: ELISA, plate-coated recombinant human CD5, HRP anti-human Fab detection, OD 450

Sequences of proteins named here, by UniProt entry; tags and fusion partners are left off. A change or cut given only in a name is not applied to a line headed by its entry. Residues count along the entry.
UniProt P06127: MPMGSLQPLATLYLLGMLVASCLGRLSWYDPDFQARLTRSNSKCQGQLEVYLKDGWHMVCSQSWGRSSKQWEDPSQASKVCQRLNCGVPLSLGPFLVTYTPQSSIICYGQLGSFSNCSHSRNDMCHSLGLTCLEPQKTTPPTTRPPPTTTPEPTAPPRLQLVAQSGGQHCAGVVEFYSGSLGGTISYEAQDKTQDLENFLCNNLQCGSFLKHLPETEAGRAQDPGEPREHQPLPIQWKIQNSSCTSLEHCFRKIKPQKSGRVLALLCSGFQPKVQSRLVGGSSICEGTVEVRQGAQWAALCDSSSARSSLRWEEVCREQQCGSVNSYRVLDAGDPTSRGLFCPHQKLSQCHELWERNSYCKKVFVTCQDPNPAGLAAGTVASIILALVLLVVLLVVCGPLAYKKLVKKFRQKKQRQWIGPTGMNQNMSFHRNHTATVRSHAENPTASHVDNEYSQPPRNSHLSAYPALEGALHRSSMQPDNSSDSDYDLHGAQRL
CD5 on human T cells: residues 25-495 of P06127
recombinant human CD5: residues 25-372 of P06127

B1: 9F2A11 anti-human CD5 monoclonal antibody (antibody, V domains shown)
VH: EVQLQESGAELVKPGASVKLSCTASGFNIKDSYMHWVKQRPEQGLEWIGRIDPANGDTQYDPKFQGKATITADTSSNTAYLQLSGLTSEDTAVYYCAREYRYAMDYWGQGTSVTVSS
VL: NIVLTQSPASLPVSLGQRATISCRASESVDSYGNSFMHWYQQKPGQPPKLLIYLASNLESGVPARFSGSGSRTDFILTIDPVEADDAATYYCQQNNEDPYTFGGGTKLEIK
[1]
  binding: binds
[2]
  binding: binds
